Data taken from patent US20090012088A1 (priority 2005, published 2009).
“Also recorded” adds a separate entry of the source.

Columns and labels:
[1] = system: DNA; assay: DNA intercalation by change in absorbance spectra upon DNA addition; type: binding; details: absorbance spectra with increasing DNA concentration
[2] = system: MPTP-treated C57 Black mice; assay: MPTP mouse model of PD, striatal monoamine levels; type: in vivo
Protocol: As a prelude to assessment of PIP-1 in a mouse model of PD, the ability of PIP-1 to penetrate the blood-brain-barrier is first assessed. PIP-1 is injected i.p. at a dose of 50 mg/kg, and mice are sacrificed at 1 and 2 h post injection. After sacrifice, to establish the presence of PIP-1 in the brain the striatum was dissected, sonicated in perchloric acid, and centrifuged. The clarified supernatant is analyzed by HPLC. No endogenous compounds interfere with this assay for PIP-1 as no signal is detected in dissected striata from non-treated mice. As shown by FIG. 21A, the striatal penetrance of PIP-1 is at the level of 70 ng/mg of protein. […] Given this blood-brain-barrier penetrance by PIP-1, the compound is assessed in the MPTP mouse model of PD. Mice are given a one-time i.p. injection of PIP-1 followed 30 minutes later by an injection of MPTP (30 mg/kg). PIP-1 is assessed at concentrations of 0 mg/kg, 1 mg/kg, 5 mg/kg, 10 mg/kg, and 50 mg/kg, and five mice are used in each group. After 30 days, the mice are sacrificed and the striatum dissected and analyzed by HPLC to determine the levels of dopamine and various dopamine metabolites. […]

Row | Molecule | DNA intercalation [1] | MPP+ levels in the striata of PIP-1-treated vs non-treated mice ([2]; control experiments) | Effect on striatal serotonin levels ([2]; mouse, in vivo)
1 | 4-Amino-5-dimethylamino-2-phenyl-2H-pyridazin-3-one [PIP-1] | does not intercalate into DNA | – | –
2 | CN(C)c1cnn(-c2ccccc2)c(=O)c1N [PIP-1, 4-Amino-5-dimethylamino-2-phenyl-2H-pyridazin-3-one] | No such shift | no difference in MPP^+ levels | neither MPTP nor PIP-1 has an effect; also recorded: no effect
